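A panel of P. falciparum strains inside erythrocytes is exposed to compounds for three days, then a DNA-binding dye reports the amount of parasite DNA. Each compound was titrated across a series from about 0.000037 to 29 µM. The number is the fitted AC50, the concentration giving a half-maximal change in signal; a lower value means higher potency, whether the curve shows a decrease or an increase. Calls follow the curve class and fit quality: every row here is inconclusive, covering signal-raising curves and weak, poorly fitted, partial or highest-dose-only inhibition curves.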

Values are in µM. Every entry below has the call inconclusive. Only part of the assay is shown, chiefly results filed as inconclusive. Potencies fitted to partial, single-point or poorly fitting curves are rough.

{"smiles": "C[C@@H](Cc1ccccc1)NCCC(c1ccccc1)c1ccccc1", "condition": "TAB109", "Potency (µM)": "3.981", "remark": "inhibitor, single point"}
{"smiles": "C[C@@H](Cc1ccccc1)NCCC(c1ccccc1)c1ccccc1", "condition": "AA1029", "Potency (µM)": "3.162", "remark": "inhibitor, partial curve"}
{"smiles": "C[C@@H](Cc1ccccc1)NCCC(c1ccccc1)c1ccccc1", "condition": "CP217", "Potency (µM)": "3.548", "remark": "inhibitor, single point"}
{"smiles": "C[C@@H](Cc1ccccc1)NCCC(c1ccccc1)c1ccccc1", "condition": "CP191", "Potency (µM)": "7.08", "remark": "inhibitor, single point"}
{"smiles": "C[C@@H](Cc1ccccc1)NCCC(c1ccccc1)c1ccccc1", "condition": "P93_24", "Potency (µM)": "3.162", "remark": "inhibitor, partial curve"}
{"smiles": "C[C@@H](Cc1ccccc1)NCCC(c1ccccc1)c1ccccc1", "condition": "CP291", "Potency (µM)": "3.22", "remark": "inhibitor, partial curve"}
{"smiles": "C[C@@H](Cc1ccccc1)NCCC(c1ccccc1)c1ccccc1", "condition": "CP297", "Potency (µM)": "6.424", "remark": "inhibitor, single point"}
{"smiles": "C[C@@H](Cc1ccccc1)NCCC(c1ccccc1)c1ccccc1", "condition": "Dd2", "Potency (µM)": "3.162", "remark": "inhibitor, partial curve"}
{"smiles": "C[C@@H](Cc1ccccc1)NCCC(c1ccccc1)c1ccccc1", "condition": "CP335", "Potency (µM)": "6.424", "remark": "inhibitor, single point"}
{"smiles": "C[C@@H](Cc1ccccc1)NCCC(c1ccccc1)c1ccccc1", "condition": "GB4", "Potency (µM)": "5.103", "remark": "inhibitor, single point"}
{"smiles": "C[C@@H](Cc1ccccc1)NCCC(c1ccccc1)c1ccccc1", "condition": "HB3", "Potency (µM)": "3.981", "remark": "inhibitor, single point"}
{"smiles": "C[C@@H](Cc1ccccc1)NCCC(c1ccccc1)c1ccccc1", "condition": "CP260", "Potency (µM)": "10", "remark": "inhibitor, single point"}
{"smiles": "C[C@@H](Cc1ccccc1)NCCC(c1ccccc1)c1ccccc1", "condition": "AS120", "Potency (µM)": "3.548", "remark": "inhibitor, partial curve"}
{"smiles": "C[C@@H](Cc1ccccc1)NCCC(c1ccccc1)c1ccccc1", "condition": "DIV30", "Potency (µM)": "8.087", "remark": "inhibitor, single point"}
{"smiles": "C[C@@H](Cc1ccccc1)NCCC(c1ccccc1)c1ccccc1", "condition": "CP256", "Potency (µM)": "4.467", "remark": "inhibitor, partial curve, poor fit"}
{"smiles": "C[C@@H](Cc1ccccc1)NCCC(c1ccccc1)c1ccccc1", "condition": "CP305", "Potency (µM)": "3.612", "remark": "inhibitor, partial curve"}

Once more, the final 2:

SMILES	condition	Potency (µM)	remark
C[C@@H](Cc1ccccc1)NCCC(c1ccccc1)c1ccccc1	CP256	4.467	inhibitor, partial curve, poor fit
C[C@@H](Cc1ccccc1)NCCC(c1ccccc1)c1ccccc1	CP305	3.612	inhibitor, partial curve

The results are deposited in PubChem (AID504749; NCATS, 2011).